## Primary screen of a compound library

Amino acid sequences for entries named in this document (tags omitted).
UniProt E9BF75, entry or part of it: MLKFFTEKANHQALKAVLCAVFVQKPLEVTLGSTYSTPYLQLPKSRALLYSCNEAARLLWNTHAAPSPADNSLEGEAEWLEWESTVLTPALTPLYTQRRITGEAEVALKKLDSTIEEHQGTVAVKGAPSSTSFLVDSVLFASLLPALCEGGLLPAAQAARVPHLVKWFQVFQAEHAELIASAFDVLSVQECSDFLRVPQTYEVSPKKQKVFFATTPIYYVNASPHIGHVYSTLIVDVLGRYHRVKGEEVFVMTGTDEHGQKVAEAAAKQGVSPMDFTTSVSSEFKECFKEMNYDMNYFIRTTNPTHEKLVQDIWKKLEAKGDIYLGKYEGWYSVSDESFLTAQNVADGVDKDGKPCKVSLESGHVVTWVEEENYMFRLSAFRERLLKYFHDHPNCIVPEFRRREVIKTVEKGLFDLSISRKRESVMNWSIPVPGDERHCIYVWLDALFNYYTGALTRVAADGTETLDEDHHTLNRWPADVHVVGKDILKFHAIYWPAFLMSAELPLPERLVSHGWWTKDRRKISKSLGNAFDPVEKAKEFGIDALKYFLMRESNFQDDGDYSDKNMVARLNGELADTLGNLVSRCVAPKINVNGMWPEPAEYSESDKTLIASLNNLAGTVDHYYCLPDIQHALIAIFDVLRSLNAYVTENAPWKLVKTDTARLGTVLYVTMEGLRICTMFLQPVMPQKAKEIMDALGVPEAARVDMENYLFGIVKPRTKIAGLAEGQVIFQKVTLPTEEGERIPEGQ

A: 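Assay on Mycobacterium tuberculosis, filed only as a heat shock assay from Cornell; the read-out is not stated. The concentration is filed as 10 mM, unlikely as a test dose, so the dose is not known. Higher reads as stronger inhibition (inferred: compounds with an IC50 in retests scored well above the rest). About 69,000 compounds were tested under these conditions; 1.4% (about 930) showed 50% or more at least once.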
B: 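Whole-cell assay for inhibitors of Mycobacterium tuberculosis growth, labelled Cornell in the record; the read-out is not stated. The concentration is filed as 10 mM, unlikely as a test dose, so the dose is not known. The record gives no direction; compounds strong in two other growth screens of this library score well above the rest, so higher reads as stronger inhibition. Size under these conditions: about 53,000 compounds, about 900 of them at 50% or above in at least one test.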
C: 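Methionyl-tRNA synthetase (putative), Leishmania donovani (UniProt E9BF75). Primary screen of methionyl-tRNA synthetase; the read-out is not stated. The test concentration is not given. The values are filed as inhibition. Size under these conditions: about 68,000 compounds, about 24 of them at 50% or above in at least one test.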

All values are in %. The controls that fix the scale are not given in the record; negative values are as filed. Compounds were drawn at random from those tested, without regard to their results. A dash means the value is not listed here; it may have been measured.

SMILES | A | B | C
CCn1cnnc1C1CCN(C(=O)c2ccc3c(c2)nnn3C)CC1 | -2.317 | -12.24 | 4.507
O=C(CCC1CCCN(S(=O)(=O)C2CC2)C1)Nc1ccc(Cl)cc1 (stereo not given) | -1.25 | -8.341 | 3.125
CN(C)S(=O)(=O)N1CCC2(CC1)CC(Oc1ccccn1)CO2 (stereo not given) | - | - | 8.219
COCc1nc(C(=O)N2CCCC(n3ccnc3C)C2)cs1 (stereo not given) | -4.226 | - | 21.59
Cn1c(=O)c2c(n3ncnc13)NC(=O)CC2c1ccc(F)cc1 (stereo not given) | -28.38 | - | 13.14
CCc1csc(NC(=O)NCc2ccccn2)n1 | -3.153 | 23.71 | 16.09
CCN(C(=O)CCCOc1ccccc1F)c1ccncc1 | -13.43 | 2.334 | 19.72
CC(=O)NC1CCN(c2ccc(C#N)cc2C(F)(F)F)CC1 | -17.24 | - | 11.78
COc1cc(OC)cc(C(=O)NCC(c2cccn2C)N2CCCC2)c1 (stereo not given) | -18.97 | - | 9.051
C=Cn1ncc(CN2CCc3nc(-c4ccncc4)nc(O)c3C2)c1C | -19.42 | 24.59 | 17.71
O=C(c1cccc(S(=O)(=O)NCCCc2ccco2)c1)N1CCOCC1 | -6.773 | -42.85 | 8.374
Cc1ccccc1C(=O)N1CCO[C@H]2[C@H](OCCN(C)C)CC[C@@H]21 | - | - | 14.21
O=C(O)C(F)(F)F.[H][C@@]12CCN(Cc3cccc(C#N)c3)[C@@]1([H])CC(=O)N2CCOC | -88.58 | - | -
Cn1nccc1-c1ccc2nc(C3CCN(CCO)CC3)nn2c1 | - | - | 17.99
O=C(C1CCC1)N1CCC2(CCN(Cc3cccc(F)c3)CC2)CC1 | - | - | 4.886
Cc1ccc(CNC2CC3(CCN(CCO)CC3)c3ccccc32)s1.O=C(O)C(F)(F)F.O=C(O)C(F)(F)F (stereo not given) | 0.5733 | 8.625 | -
O=C(c1cnccn1)N1CCN2C[C@H](Oc3cccc(F)c3)C[C@H]2C1 | - | - | 13.36
Cc1cccnc1CN(C)CC1(O)CCCN(CC2CCCCC2)C1=O (stereo not given) | 48.21 | 25.88 | 16.3
O=C(c1ccc[nH]1)N1CCc2onc(COc3cccnc3)c2C1 | - | - | 15.42
Clc1ccccc1CN1CCCC(c2nnc(-c3cnccn3)o2)C1 (stereo not given) | 14.82 | -13.11 | 15.53
CCN1CCCC(c2c(-c3ccccc3)ncn2CCCO)C1 (stereo not given) | -24.83 | - | 3.759
CCOCCC(=O)Nc1ccnn1-c1ccc(Cl)cc1 | 22.4 | 24.15 | 17.61
CC(C)N(C)Cc1cn2c(n1)CN(C(=O)c1ccc[nH]1)CC2 | -2.118 | 2.484 | 6.965
COc1cc(N2C[C@@H](C)[C@](O)(C3CC3)C2)nc(N)n1 | -2.127 | 5.796 | 6.863
CC(C)Cc1noc(CN(C)C(=O)CCNC(=O)c2ccccc2F)n1 | -17.42 | - | 11.34
Cc1cc2c(=O)n3c(nc2s1)CCN(C(=O)c1ccn(C)n1)CC3 | 6.514 | -33 | 7.12
CCc1nc(C)sc1CN(Cc1ccncc1)C1CCN(C)CC1 | -15.34 | 6.505 | 11.27
[H][C@@]12CCN(S(=O)(=O)C3CC3)[C@@]1([H])CCN2C(=O)c1cnccn1 | 10.63 | 13.47 | -
CN1CCN(CC2(O)CCCN(S(=O)(=O)c3cn[nH]c3)CC2)CC1 (stereo not given) | -11.64 | -31.96 | 8.14
Cc1nccn1CCN1C(=O)CC2(CCCC2)CC1=O | -13.63 | -5.301 | 6.504
CC(C)NC(=O)[C@@H]1CC[C@@H]2[C@@H](CCN2Cc2cn(C)c3ccccc23)O1 | - | - | 8.759
COc1c(CNC2CCCOc3ccc(F)cc32)c(C)nn1C (stereo not given) | - | - | 16.1
COCC1CN(Cc2sccc2C)Cc2nnn(CC3CC3)c21.O=C(O)C(F)(F)F (stereo not given) | -25.83 | 40.99 | -
Cc1nnc(C(C)Nc2cccc(COCCc3ccccc3)c2)o1 (stereo not given) | 26.32 | 37.4 | 14.03
CCc1nnc(CN2CCC(N3CCN(CC)C3=O)CC2)o1 | 4.395 | - | 17.68
O=C(Nc1ccncc1)NC1CCN(c2ccccc2Cl)C1=O (stereo not given) | -8.108 | -58.38 | 16.08
[H][C@@]12CS(=O)(=O)C[C@]1([H])N(C(=O)c1ccc(C)cc1OC)CCN2CCOC | 22.83 | -30.76 | -
Cc1cc(-c2c[nH]nc2C2CCCCN2C(=O)c2ccccc2)on1 (stereo not given) | 2.072 | -6.055 | 17.72

Once more, the final 5:

| SMILES | A | B | C |
|---|---|---|---|
| `Cc1nnc(C(C)Nc2cccc(COCCc3ccccc3)c2)o1` (stereo not given) | 26.32 | 37.4 | 14.03 |
| `CCc1nnc(CN2CCC(N3CCN(CC)C3=O)CC2)o1` | 4.395 | - | 17.68 |
| `O=C(Nc1ccncc1)NC1CCN(c2ccccc2Cl)C1=O` (stereo not given) | -8.108 | -58.38 | 16.08 |
| `[H][C@@]12CS(=O)(=O)C[C@]1([H])N(C(=O)c1ccc(C)cc1OC)CCN2CCOC` | 22.83 | -30.76 | - |
| `Cc1cc(-c2c[nH]nc2C2CCCCN2C(=O)c2ccccc2)on1` (stereo not given) | 2.072 | -6.055 | 17.72 |

From ChEMBL document CHEMBL3988442, “University of Dundee, Small-Polar-MMV Screening Library” (2021).